Source: the supplement of paper PMC6411743
± gives the standard deviation of the averaged measurements. The list shows a part of the results.

By UniProt entry, the sequences of proteins in these tests, tags left out. Where a name states a change or a piece, a line headed by the entry shows the natural chain unless it says otherwise.
UniProt Q13907: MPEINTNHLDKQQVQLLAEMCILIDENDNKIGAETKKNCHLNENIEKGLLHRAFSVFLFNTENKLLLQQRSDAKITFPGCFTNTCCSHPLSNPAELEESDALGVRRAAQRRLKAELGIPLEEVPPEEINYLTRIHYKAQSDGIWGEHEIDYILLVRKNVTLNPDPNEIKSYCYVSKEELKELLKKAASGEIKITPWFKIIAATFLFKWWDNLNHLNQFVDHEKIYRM
UniProt Q13242, whole entry: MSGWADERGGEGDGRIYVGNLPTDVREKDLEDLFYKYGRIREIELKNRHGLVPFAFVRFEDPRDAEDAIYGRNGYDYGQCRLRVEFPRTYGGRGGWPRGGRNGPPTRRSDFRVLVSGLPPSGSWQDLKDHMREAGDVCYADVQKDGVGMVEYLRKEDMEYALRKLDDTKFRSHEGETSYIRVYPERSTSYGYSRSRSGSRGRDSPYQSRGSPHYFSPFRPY
UniProt Q14011: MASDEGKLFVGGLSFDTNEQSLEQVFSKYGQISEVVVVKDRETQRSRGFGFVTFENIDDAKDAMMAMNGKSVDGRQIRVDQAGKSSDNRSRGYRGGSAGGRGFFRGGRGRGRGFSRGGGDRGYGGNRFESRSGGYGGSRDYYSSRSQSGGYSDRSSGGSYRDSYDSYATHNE
UniProt Q12824, whole entry: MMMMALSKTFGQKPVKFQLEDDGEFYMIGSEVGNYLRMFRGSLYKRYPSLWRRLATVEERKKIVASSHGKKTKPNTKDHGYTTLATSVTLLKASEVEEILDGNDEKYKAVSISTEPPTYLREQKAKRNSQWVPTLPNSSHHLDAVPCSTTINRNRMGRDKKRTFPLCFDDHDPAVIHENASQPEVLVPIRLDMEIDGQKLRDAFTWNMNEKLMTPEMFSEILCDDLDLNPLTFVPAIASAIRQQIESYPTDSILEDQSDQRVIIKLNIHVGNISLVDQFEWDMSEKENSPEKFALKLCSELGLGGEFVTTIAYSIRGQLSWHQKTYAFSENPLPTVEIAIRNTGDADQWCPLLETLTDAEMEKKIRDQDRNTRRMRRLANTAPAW
UniProt Q13045: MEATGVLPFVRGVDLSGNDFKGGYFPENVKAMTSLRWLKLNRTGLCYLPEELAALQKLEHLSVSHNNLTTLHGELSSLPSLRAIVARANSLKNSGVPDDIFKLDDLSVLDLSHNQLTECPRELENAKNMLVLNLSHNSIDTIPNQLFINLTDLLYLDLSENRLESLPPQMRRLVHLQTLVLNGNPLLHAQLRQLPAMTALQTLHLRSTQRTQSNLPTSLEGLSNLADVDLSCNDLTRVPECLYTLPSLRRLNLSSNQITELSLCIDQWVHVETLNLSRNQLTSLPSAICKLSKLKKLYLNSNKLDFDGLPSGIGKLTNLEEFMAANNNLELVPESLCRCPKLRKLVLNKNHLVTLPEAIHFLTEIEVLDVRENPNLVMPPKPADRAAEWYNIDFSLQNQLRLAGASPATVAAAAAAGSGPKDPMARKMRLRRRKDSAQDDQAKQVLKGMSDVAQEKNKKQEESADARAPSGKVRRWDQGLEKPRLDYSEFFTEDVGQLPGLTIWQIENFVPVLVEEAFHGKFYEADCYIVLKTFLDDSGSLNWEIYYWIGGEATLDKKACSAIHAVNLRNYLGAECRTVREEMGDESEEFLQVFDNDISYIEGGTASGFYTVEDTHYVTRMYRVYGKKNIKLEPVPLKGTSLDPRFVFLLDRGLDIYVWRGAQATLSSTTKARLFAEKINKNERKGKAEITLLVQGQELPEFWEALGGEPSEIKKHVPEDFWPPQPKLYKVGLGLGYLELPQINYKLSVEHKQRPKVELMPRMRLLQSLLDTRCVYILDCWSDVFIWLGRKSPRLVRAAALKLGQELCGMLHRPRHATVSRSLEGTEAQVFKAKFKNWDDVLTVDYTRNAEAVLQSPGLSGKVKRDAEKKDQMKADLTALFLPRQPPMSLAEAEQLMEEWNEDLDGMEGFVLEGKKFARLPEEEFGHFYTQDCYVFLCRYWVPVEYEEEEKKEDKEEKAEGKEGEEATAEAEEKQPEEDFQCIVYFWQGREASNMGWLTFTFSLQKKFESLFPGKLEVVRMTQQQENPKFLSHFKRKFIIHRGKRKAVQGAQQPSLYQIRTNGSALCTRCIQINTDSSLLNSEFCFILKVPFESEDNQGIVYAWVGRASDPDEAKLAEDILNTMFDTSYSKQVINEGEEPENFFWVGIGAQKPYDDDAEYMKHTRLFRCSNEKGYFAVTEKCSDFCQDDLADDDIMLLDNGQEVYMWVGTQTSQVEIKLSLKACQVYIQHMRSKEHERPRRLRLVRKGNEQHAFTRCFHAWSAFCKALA
UniProt Q14240, whole entry: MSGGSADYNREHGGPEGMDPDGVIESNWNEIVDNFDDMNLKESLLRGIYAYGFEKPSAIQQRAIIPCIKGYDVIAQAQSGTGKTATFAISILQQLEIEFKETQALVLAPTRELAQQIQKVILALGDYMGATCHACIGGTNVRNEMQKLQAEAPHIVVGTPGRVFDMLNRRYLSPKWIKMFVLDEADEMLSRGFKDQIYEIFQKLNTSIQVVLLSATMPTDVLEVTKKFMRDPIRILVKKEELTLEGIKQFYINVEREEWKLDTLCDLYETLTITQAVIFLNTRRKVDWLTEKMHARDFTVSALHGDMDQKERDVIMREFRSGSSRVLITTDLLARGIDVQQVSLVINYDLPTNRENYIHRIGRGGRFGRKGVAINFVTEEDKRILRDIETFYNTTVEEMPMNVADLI
UniProt Q14019: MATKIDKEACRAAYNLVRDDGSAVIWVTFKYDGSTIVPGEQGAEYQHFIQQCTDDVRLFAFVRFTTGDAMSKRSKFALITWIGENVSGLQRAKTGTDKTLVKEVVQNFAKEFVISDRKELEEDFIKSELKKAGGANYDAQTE
UniProt Q14457, whole entry: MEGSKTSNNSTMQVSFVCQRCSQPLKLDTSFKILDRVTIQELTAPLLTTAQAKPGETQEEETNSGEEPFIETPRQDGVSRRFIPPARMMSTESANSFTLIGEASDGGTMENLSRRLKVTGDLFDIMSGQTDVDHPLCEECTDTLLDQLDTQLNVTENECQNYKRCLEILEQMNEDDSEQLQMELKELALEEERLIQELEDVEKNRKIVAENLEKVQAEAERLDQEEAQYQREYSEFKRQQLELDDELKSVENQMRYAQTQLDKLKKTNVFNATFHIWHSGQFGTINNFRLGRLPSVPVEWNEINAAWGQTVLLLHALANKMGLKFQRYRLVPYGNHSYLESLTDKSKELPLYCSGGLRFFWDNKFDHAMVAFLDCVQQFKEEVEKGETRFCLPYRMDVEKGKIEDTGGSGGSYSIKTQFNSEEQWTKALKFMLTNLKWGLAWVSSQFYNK
UniProt Q13177, whole entry: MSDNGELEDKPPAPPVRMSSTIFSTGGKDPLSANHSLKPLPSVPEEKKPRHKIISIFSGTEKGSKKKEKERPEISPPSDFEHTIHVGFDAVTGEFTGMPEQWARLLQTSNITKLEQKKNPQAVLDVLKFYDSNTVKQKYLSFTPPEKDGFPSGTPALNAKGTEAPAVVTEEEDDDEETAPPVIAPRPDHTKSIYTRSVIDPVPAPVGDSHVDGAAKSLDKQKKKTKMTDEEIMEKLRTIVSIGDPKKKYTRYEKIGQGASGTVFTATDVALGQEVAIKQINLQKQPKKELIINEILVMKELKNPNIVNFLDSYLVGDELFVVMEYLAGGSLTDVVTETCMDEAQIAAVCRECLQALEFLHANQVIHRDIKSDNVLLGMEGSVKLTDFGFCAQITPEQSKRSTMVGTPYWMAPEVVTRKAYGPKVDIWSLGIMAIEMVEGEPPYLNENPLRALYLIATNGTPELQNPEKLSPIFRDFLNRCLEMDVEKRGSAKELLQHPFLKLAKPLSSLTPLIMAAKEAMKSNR
UniProt Q04446: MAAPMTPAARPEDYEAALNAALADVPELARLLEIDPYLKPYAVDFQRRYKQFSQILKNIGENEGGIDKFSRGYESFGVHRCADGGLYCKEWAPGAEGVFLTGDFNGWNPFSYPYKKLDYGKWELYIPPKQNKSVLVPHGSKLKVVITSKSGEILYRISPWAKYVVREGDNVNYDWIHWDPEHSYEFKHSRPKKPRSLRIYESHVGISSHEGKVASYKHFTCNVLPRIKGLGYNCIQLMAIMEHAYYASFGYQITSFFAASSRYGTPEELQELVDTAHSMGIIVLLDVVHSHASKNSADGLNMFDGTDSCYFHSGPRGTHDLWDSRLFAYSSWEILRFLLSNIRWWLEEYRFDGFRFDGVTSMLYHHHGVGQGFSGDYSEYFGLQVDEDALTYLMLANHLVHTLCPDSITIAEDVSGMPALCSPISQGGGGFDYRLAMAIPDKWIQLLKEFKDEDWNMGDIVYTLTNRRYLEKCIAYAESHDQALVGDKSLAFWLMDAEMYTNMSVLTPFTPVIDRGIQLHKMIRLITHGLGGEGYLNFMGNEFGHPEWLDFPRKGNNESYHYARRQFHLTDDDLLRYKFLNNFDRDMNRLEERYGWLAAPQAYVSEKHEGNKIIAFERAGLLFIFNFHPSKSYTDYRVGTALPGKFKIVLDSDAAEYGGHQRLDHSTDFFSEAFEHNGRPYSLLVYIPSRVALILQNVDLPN
UniProt Q12931: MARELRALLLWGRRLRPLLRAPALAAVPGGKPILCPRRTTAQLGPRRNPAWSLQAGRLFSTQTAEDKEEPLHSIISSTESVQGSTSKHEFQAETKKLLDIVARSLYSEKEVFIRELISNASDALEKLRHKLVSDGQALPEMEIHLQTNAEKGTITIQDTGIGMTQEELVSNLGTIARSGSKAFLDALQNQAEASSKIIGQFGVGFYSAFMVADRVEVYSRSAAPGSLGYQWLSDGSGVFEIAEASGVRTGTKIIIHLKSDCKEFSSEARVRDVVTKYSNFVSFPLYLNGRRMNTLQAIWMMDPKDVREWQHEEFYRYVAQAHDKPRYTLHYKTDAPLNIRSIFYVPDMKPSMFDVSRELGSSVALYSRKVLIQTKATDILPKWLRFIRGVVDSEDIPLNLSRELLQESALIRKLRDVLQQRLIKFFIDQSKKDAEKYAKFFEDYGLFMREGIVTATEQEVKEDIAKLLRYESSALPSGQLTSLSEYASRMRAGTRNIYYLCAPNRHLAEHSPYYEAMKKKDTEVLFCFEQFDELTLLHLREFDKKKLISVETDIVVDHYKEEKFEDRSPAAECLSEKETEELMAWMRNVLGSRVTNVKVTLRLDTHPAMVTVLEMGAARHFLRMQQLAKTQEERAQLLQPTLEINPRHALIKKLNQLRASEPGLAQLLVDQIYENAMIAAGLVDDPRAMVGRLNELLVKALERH
UniProt Q10472: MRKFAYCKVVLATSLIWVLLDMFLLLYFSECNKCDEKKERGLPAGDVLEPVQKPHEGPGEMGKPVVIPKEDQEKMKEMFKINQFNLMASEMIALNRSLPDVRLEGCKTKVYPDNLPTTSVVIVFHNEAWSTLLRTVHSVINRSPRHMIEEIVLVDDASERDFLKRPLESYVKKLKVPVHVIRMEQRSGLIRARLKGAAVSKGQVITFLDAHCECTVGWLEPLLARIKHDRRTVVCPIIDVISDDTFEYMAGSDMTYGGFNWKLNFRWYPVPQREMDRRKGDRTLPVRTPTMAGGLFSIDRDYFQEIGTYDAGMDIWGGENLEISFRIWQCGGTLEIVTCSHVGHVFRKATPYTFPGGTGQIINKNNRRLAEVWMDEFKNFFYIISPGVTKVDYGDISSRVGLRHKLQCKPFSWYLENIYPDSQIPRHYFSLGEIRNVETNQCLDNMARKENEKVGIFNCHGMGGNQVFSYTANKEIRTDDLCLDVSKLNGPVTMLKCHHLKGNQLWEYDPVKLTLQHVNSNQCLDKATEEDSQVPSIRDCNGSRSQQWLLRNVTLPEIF
UniProt Q06547, whole entry: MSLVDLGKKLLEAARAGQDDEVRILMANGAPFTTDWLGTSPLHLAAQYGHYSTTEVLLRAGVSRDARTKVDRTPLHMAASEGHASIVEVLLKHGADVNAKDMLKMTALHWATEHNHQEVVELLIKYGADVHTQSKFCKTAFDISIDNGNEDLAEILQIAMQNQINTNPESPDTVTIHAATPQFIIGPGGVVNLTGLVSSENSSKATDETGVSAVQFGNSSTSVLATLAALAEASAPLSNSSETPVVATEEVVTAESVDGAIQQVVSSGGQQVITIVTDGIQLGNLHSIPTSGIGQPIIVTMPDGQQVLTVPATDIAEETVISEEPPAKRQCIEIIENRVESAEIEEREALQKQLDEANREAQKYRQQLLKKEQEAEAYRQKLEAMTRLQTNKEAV
UniProt Q13151: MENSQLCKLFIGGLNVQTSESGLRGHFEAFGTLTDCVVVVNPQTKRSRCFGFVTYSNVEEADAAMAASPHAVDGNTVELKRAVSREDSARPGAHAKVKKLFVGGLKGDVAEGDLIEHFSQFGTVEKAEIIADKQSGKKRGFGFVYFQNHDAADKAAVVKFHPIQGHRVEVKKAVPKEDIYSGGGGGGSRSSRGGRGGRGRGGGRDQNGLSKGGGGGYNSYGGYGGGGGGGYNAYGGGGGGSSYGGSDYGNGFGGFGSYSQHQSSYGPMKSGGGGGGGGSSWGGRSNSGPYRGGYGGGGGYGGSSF

Compound: Nc1nc2c(ncn2[C@@H]2O[C@H](COP(=O)(O)OP(=O)(O)OP(=O)(O)O)[C@@H](O)[C@H]2O)c(=O)[nH]1 [guanosine triphosphate]
Assay: NP40-soluble protein abundance relative to vehicle (solubility fold change) (ratio); higher = more soluble protein in presence of GTP
Procedure, shortened: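 Crude Jurkat lysate, prepared by Dounce homogenisation, was exposed to eight concentrations from 0.1 to 10 mM for 10 min at room temperature and then 3 min at 37 °C. Solubilisation used 0.8% NP40 with benzonase for 60 min at 4 °C, followed by ultracentrifugation and TMT labelling of the supernatant for LC-MS/MS. After vsn normalisation of intensities, each value is the fold change against the detergent-processed vehicle within each replicate, across three independent experiments.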

Target	NP40-soluble protein abundance (concentration: 0.1mM)	NP40-soluble protein abundance (concentration: 0.5mM)	NP40-soluble protein abundance (concentration: 1mM)	NP40-soluble protein abundance (concentration: 2mM)	NP40-soluble protein abundance (concentration: 4mM)	NP40-soluble protein abundance (concentration: 6mM)	NP40-soluble protein abundance (concentration: 8mM)	NP40-soluble protein abundance (concentration: 10mM)
UniProt Q13325 and related entries	1.06 ± 0.044	1.05 ± 0.061	0.989 ± 0.057	0.978 ± 0.05	0.952 ± 0.086	0.927 ± 0.049	0.906 ± 0.077	0.888 ± 0.13
UniProt Q13107 and related entries	1.09 ± 0.14	1.05 ± 0.16	1.04 ± 0.11	1.04 ± 0.11	1.02 ± 0.092	0.966 ± 0.075	1.01 ± 0.13	0.964 ± 0.14
IDI1 (UniProt Q13907)	0.959 ± 0.072	0.945 ± 0.058	1.02 ± 0.1	0.91 ± 0.044	0.943 ± 0.13	0.913 ± 0.062	0.87 ± 0.12	0.868 ± 0.088
UniProt Q06210 and related entries	1.02 ± 0.04	1.05 ± 0.092	0.962 ± 0.034	0.991 ± 0.086	0.96 ± 0.052	0.977 ± 0.069	0.913 ± 0.01	0.901 ± 0.061
UniProt Q13242	0.925 ± 0.015	0.928 ± 0.036	1.14 ± 0.064	1.22 ± 0.023	1.3 ± 0.05	1.44 ± 0.058	1.5 ± 0.062	1.71 ± 0.18
UniProt Q12797 and related entries	1.04 ± 0.12	1.02 ± 0.028	0.986 ± 0.057	0.902 ± 0.15	0.985 ± 0.021	1.06 ± 0.08	0.974 ± 0.14	1.03 ± 0.033
CIRBP (UniProt Q14011)	0.921 ± 0.12	0.934 ± 0.11	0.962 ± 0.13	0.928 ± 0.13	0.966 ± 0.087	1.03 ± 0.12	1.04 ± 0.12	1.07 ± 0.12
UniProt Q12824 and related entries	1.08 ± 0.014	1.11 ± 0.026	1.13 ± 0.042	1.14 ± 0.1	1.16 ± 0.11	1.17 ± 0.11	1.17 ± 0.16	1.13 ± 0.11
UniProt Q13045 and related entries	1.026 ± 0.01	1.05 ± 0.032	0.992 ± 0.017	0.988 ± 0.036	1 ± 0.033	0.983 ± 0.05	0.973 ± 0.021	0.944 ± 0.0043
UniProt Q13136 and related entries	0.997 ± 0.021	0.994 ± 0.042	1.02 ± 0.015	1.03 ± 0.068	1.03 ± 0.067	0.985 ± 0.041	1.04 ± 0.075	1.03 ± 0.074
UniProt Q14240 and related entries	0.978 ± 0.071	1.03 ± 0.087	0.964 ± 0.06	0.972 ± 0.053	0.995 ± 0.068	0.998 ± 0.1	0.978 ± 0.089	0.964 ± 0.083
UniProt Q04727 and related entries	0.997 ± 0.048	0.925 ± 0.068	0.919 ± 0.074	0.898 ± 0.097	0.884 ± 0.065	0.91 ± 0.073	0.938 ± 0.079	0.918 ± 0.048
COTL1 (UniProt Q14019)	0.897 ± 0.018	0.928 ± 0.045	0.881 ± 0.042	0.862 ± 0.073	0.828 ± 0.073	0.856 ± 0.08	0.809 ± 0.093	0.841 ± 0.11
BECN1 (UniProt Q14457)	1.018 ± 0.0085	1.04 ± 0.044	1.06 ± 0.045	1.02 ± 0.037	1.06 ± 0.059	1.03 ± 0.066	1.07 ± 0.1	1.02 ± 0.078
UniProt Q13596 and related entries	0.953 ± 0.093	0.951 ± 0.086	0.928 ± 0.1	0.894 ± 0.087	0.898 ± 0.087	0.877 ± 0.067	0.888 ± 0.093	0.866 ± 0.077
UniProt Q13561 and related entries	0.886 ± 0.025	0.86 ± 0.067	1.08 ± 0.071	1.07 ± 0.034	1.12 ± 0.055	1.09 ± 0.079	1.07 ± 0.12	1.15 ± 0.16
UniProt Q14157 and related entries	0.924 ± 0.065	0.926 ± 0.086	0.967 ± 0.06	0.936 ± 0.11	0.937 ± 0.087	1.01 ± 0.1	1.03 ± 0.058	1.02 ± 0.1
PAK2 (UniProt Q13177)	0.941 ± 0.038	0.964 ± 0.043	0.929 ± 0.055	0.862 ± 0.058	0.852 ± 0.062	0.882 ± 0.066	0.88 ± 0.063	0.848 ± 0.064
GBE1 (UniProt Q04446)	1.01 ± 0.021	1 ± 0.028	0.9411 ± 0.0057	0.907 ± 0.032	0.896 ± 0.048	0.889 ± 0.027	0.869 ± 0.034	0.84 ± 0.067
UniProt Q12931 and related entries	1.07 ± 0.041	1.07 ± 0.066	0.921 ± 0.013	1.01 ± 0.12	0.913 ± 0.066	0.906 ± 0.044	0.857 ± 0.055	0.826 ± 0.11
UniProt Q14008 and related entries	0.966 ± 0.041	0.983 ± 0.039	0.976 ± 0.042	0.958 ± 0.04	0.956 ± 0.039	0.968 ± 0.029	0.986 ± 0.056	0.979 ± 0.056
GALNT1 (UniProt Q10472)	0.963 ± 0.026	1.03 ± 0.077	0.937 ± 0.02	0.994 ± 0.071	0.962 ± 0.048	0.982 ± 0.048	0.963 ± 0.049	0.965 ± 0.039
TBL3 (UniProt Q12788)	1.18 ± 0.1	1.16 ± 0.14	1.11 ± 0.058	1.36 ± 0.15	1.59 ± 0.19	1.65 ± 0.17	1.72 ± 0.21	1.7 ± 0.26
UniProt Q10567 and related entries	0.918 ± 0.056	0.927 ± 0.032	0.956 ± 0.054	0.943 ± 0.044	0.954 ± 0.04	0.919 ± 0.051	0.921 ± 0.05	0.924 ± 0.054
UniProt Q13363 and related entries	1.06 ± 0.029	1.02 ± 0.064	0.921 ± 0.046	0.933 ± 0.084	0.944 ± 0.067	0.905 ± 0.0099	0.852 ± 0.12	0.835 ± 0.085
ROCK1 (UniProt Q13464)	0.974 ± 0.059	0.995 ± 0.057	0.98 ± 0.064	0.938 ± 0.084	0.934 ± 0.067	0.942 ± 0.058	0.972 ± 0.056	0.941 ± 0.067
UniProt Q14257 and related entries	0.939 ± 0.04	0.958 ± 0.025	1.05 ± 0.079	1.01 ± 0.024	1.01 ± 0.014	0.982 ± 0.028	1.03 ± 0.077	0.968 ± 0.046
UniProt Q06547 and related entries	1.02 ± 0.098	0.988 ± 0.11	1.01 ± 0.1	1.01 ± 0.17	0.932 ± 0.13	0.954 ± 0.13	0.981 ± 0.1	0.986 ± 0.11
HNRNPA0 (UniProt Q13151)	0.975 ± 0.038	1 ± 0.024	1 ± 0.038	0.989 ± 0.05	0.967 ± 0.035	1 ± 0.046	1.01 ± 0.052	0.986 ± 0.058
TTLL12 (UniProt Q14166)	1.02 ± 0.028	1.05 ± 0.053	0.932 ± 0.015	0.957 ± 0.043	0.95 ± 0.021	0.929 ± 0.034	0.892 ± 0.041	0.88 ± 0.062

Two entries drawn at random from those above, as already listed:
Target	NP40-soluble protein abundance (concentration: 0.1mM)	NP40-soluble protein abundance (concentration: 0.5mM)	NP40-soluble protein abundance (concentration: 1mM)	NP40-soluble protein abundance (concentration: 2mM)	NP40-soluble protein abundance (concentration: 4mM)	NP40-soluble protein abundance (concentration: 6mM)	NP40-soluble protein abundance (concentration: 8mM)	NP40-soluble protein abundance (concentration: 10mM)
TBL3 (UniProt Q12788)	1.18 ± 0.1	1.16 ± 0.14	1.11 ± 0.058	1.36 ± 0.15	1.59 ± 0.19	1.65 ± 0.17	1.72 ± 0.21	1.7 ± 0.26
CIRBP (UniProt Q14011)	0.921 ± 0.12	0.934 ± 0.11	0.962 ± 0.13	0.928 ± 0.13	0.966 ± 0.087	1.03 ± 0.12	1.04 ± 0.12	1.07 ± 0.12
